In patent publication US5395823A, “Neuropeptide Y agonists and partial agonists” (Merrell Dow Pharmaceuticals Inc., priority 1993, dated 1995):
Part of at least one peptide drawing is inferred or uncertain, most often the ends. Positions of bridges follow the written chain, without caps; N, C: chain ends. Non-standard residues stand in square brackets, D forms with d. Residues, ends and D or L forms follow the SMILES beside them. Aoc = NCCCCCCCC(=O)O

Biological target: receptors for neuropeptide Y (porcine spleen crude membranes)
Experiment: 125I-Bolton-Hunter-neuropeptide Y binding in porcine spleen crude membranes
Conditions: competition with 0.1 nM BHNPY, room temperature 2 hr, pH 7.4
Protocol: 145:21-9 (1988). ^125 I-Bolton-Hunter-neuropeptide Y (BHNPY; Amersham) binding was carried out in porcine spleen crude membranes. Membranes from frozen spleen were prepared as described previously for tachykinin peptide binding studies (Buck et al., 1984). An aliquot of membrane preparation (approximately 15 mg tissue) was incubated at room temperature for 2 hr in buffer (pH 7.4) containing the peptide analog, 130 mM NaCl, 2.7 mM KCl, 2 mM MgCl2, 1.8 mM CaCl2, 20 mM HEPES, 4 mg/ml BSA, 40 μg/ml bacitracin, 4 μg/ml leupeptin and […] chymostatin. BHNPY was included in a concentration of 0.1 nM and non-specific binding was determined by the inclusion of 1 μM pNPY. Samples were rapidly filtered over Whatman GF/C filters presoaked overnight in 0.5% histone (type II-AS; Sigma) and washed two times with ice-cold, plain HEPES-salt buffer (pH 7.4). IC50 values for test peptides were calculated from 6 to 10 point competition curves.

Q: `CC[C@H](C)[C@H](NC(=O)[C@H](Cc1ccc(O)cc1)NC(=O)[C@H](Cc1c[nH]cn1)NC(=O)[C@H](CCCNC(=N)N)NC(=O)[C@H]1CSSC[C@H](NC(=O)[C@H](CCCCN)NC(=O)[C@H](CO)NC(=O)[C@@H]2CCCN2C(=O)[C@@H](N)Cc2ccc(O)cc2)C(=O)N[C@@H](CC(=O)O)C(=O)NCCCCCCCC(=O)N[C@@H](Cc2ccc(O)cc2)C(=O)N[C@@H](CO)C(=O)N[C@@H](C)C(=O)N1)C(=O)N[C@@H](CC(N)=O)C(=O)N[C@@H](CC(C)C)C(=O)N[C@H](C(=O)N[C@H](C(=O)N[C@@H](CCCNC(=N)N)C(=O)N[C@@H](CCC(N)=O)C(=O)N[C@@H](CCCNC(=N)N)C(=O)N[C@@H](Cc1ccc(O)cc1)C(N)=O)[C@@H](C)O)[C@@H](C)CC` [Example 2] (H-YPSKCD[Aoc]YSA[dC]RHYINLITRQRY-NH2; disulfide 5-11) was tested. Which IC50 did it give?
A: The IC50 was under 50 nM.
